These are yes or no findings as the source states them, for the method shown. For some of these results: In cells and extracts the contact can be indirect. Some entries that bind do so weakly or less than the wild type. Where a sequence is shown, tags or fusion partners need not be part of it.
Experiments:
[1] = molecular target: T1, MERISTEM-… (MDF), BiFC fusion (Arabidopsis) (UniProt Q9LFE0); assay: split reporter; BiFC with split YFP (pYFN43 + pYFC43 + p19, 1:1:1) by agroinfiltration of Nicotiana benthamiana leaves; fluorescence of leaf epidermis imaged after 3 days
T1 sequence: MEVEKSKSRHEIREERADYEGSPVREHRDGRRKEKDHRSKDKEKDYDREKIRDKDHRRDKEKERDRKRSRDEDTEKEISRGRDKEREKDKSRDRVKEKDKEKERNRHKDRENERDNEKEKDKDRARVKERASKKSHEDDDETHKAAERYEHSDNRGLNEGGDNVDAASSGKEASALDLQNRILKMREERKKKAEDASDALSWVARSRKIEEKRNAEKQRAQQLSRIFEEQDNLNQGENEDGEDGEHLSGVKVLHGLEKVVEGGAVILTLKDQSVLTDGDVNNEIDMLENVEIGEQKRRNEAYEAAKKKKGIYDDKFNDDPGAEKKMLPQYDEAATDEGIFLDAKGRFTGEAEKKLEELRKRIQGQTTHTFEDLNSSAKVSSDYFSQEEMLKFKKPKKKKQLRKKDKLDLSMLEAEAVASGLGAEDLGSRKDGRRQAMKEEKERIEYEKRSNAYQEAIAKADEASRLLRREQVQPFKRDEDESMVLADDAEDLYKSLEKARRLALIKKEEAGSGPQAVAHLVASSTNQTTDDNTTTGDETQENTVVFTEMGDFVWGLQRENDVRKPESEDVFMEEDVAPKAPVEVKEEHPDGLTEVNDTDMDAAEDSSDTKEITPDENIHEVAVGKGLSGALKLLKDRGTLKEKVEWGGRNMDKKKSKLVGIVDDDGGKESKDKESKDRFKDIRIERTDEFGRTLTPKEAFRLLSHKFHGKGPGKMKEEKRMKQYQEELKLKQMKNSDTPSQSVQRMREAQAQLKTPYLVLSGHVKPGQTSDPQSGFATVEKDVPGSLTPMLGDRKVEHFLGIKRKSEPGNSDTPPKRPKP

By UniProt entry, the sequences of proteins in these tests, tags left out.
UniProt Q8S307: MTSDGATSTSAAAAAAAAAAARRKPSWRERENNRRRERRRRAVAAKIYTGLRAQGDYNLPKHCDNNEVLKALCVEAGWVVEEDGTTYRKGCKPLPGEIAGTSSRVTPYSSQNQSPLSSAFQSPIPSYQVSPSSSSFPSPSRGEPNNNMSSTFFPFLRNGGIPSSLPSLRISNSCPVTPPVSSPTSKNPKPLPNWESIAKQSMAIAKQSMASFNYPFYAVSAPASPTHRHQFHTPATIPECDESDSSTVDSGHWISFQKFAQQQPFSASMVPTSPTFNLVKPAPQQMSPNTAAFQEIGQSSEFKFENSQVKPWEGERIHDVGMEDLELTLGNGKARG
UniProt Q9SSD2: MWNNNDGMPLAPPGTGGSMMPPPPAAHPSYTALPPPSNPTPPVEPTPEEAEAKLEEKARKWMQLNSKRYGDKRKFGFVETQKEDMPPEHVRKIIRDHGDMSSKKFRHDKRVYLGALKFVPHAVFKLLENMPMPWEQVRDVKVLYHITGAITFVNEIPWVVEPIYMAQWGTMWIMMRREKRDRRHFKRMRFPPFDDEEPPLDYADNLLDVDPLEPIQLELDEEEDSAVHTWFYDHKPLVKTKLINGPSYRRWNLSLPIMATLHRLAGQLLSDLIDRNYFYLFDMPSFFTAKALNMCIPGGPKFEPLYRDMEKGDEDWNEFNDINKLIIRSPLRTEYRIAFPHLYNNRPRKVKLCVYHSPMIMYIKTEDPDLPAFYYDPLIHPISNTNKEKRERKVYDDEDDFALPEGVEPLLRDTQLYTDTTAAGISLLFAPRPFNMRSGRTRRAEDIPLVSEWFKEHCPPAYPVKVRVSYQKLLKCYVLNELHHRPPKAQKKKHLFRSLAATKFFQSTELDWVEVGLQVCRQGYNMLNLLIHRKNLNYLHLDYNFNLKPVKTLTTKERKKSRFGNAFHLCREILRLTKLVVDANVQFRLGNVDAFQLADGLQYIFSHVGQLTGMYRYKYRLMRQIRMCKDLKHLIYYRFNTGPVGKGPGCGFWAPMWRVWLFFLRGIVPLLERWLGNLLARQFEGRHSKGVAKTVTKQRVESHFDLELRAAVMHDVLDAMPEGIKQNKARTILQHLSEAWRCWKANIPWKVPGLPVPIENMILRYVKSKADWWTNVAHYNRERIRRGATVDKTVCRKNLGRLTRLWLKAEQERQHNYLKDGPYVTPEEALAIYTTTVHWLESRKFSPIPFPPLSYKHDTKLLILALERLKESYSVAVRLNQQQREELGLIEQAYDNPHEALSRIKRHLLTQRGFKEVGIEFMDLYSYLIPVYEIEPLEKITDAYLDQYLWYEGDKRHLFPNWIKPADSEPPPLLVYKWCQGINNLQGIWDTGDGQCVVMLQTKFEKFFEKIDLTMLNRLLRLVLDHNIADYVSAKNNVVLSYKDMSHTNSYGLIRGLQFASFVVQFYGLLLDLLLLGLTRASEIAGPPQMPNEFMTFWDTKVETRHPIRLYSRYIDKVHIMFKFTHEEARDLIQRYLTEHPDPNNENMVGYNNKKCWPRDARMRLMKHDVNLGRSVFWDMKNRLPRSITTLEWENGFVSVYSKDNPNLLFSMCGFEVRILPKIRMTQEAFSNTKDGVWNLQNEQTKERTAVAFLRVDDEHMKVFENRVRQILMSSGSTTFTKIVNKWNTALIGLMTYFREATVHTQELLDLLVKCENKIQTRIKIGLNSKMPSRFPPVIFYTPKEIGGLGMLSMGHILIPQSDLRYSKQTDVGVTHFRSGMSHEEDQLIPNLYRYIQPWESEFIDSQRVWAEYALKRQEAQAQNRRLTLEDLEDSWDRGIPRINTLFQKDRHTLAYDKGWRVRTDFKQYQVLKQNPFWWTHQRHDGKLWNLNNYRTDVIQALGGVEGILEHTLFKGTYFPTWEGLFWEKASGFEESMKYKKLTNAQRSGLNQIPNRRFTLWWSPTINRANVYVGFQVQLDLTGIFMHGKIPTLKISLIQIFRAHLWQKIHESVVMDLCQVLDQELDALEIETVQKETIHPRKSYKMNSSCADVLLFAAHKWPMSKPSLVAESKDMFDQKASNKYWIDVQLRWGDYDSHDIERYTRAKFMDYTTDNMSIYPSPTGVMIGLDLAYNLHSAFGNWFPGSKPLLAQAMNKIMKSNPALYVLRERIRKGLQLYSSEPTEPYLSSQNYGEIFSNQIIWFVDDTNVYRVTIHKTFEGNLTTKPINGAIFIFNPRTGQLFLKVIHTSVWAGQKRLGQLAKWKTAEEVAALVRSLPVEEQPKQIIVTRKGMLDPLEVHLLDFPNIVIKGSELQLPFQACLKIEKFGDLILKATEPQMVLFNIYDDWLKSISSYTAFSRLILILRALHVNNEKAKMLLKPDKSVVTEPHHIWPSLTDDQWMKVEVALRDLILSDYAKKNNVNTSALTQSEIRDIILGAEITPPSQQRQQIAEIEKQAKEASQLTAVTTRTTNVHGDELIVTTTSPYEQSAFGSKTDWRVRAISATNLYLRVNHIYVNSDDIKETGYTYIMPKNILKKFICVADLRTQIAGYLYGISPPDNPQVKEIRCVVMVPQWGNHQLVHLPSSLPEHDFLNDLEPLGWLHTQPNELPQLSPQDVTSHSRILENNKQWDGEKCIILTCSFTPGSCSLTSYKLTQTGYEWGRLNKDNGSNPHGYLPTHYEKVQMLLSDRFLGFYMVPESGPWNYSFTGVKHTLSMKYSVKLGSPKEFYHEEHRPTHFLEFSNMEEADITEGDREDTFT
UniProt Q9SYP1: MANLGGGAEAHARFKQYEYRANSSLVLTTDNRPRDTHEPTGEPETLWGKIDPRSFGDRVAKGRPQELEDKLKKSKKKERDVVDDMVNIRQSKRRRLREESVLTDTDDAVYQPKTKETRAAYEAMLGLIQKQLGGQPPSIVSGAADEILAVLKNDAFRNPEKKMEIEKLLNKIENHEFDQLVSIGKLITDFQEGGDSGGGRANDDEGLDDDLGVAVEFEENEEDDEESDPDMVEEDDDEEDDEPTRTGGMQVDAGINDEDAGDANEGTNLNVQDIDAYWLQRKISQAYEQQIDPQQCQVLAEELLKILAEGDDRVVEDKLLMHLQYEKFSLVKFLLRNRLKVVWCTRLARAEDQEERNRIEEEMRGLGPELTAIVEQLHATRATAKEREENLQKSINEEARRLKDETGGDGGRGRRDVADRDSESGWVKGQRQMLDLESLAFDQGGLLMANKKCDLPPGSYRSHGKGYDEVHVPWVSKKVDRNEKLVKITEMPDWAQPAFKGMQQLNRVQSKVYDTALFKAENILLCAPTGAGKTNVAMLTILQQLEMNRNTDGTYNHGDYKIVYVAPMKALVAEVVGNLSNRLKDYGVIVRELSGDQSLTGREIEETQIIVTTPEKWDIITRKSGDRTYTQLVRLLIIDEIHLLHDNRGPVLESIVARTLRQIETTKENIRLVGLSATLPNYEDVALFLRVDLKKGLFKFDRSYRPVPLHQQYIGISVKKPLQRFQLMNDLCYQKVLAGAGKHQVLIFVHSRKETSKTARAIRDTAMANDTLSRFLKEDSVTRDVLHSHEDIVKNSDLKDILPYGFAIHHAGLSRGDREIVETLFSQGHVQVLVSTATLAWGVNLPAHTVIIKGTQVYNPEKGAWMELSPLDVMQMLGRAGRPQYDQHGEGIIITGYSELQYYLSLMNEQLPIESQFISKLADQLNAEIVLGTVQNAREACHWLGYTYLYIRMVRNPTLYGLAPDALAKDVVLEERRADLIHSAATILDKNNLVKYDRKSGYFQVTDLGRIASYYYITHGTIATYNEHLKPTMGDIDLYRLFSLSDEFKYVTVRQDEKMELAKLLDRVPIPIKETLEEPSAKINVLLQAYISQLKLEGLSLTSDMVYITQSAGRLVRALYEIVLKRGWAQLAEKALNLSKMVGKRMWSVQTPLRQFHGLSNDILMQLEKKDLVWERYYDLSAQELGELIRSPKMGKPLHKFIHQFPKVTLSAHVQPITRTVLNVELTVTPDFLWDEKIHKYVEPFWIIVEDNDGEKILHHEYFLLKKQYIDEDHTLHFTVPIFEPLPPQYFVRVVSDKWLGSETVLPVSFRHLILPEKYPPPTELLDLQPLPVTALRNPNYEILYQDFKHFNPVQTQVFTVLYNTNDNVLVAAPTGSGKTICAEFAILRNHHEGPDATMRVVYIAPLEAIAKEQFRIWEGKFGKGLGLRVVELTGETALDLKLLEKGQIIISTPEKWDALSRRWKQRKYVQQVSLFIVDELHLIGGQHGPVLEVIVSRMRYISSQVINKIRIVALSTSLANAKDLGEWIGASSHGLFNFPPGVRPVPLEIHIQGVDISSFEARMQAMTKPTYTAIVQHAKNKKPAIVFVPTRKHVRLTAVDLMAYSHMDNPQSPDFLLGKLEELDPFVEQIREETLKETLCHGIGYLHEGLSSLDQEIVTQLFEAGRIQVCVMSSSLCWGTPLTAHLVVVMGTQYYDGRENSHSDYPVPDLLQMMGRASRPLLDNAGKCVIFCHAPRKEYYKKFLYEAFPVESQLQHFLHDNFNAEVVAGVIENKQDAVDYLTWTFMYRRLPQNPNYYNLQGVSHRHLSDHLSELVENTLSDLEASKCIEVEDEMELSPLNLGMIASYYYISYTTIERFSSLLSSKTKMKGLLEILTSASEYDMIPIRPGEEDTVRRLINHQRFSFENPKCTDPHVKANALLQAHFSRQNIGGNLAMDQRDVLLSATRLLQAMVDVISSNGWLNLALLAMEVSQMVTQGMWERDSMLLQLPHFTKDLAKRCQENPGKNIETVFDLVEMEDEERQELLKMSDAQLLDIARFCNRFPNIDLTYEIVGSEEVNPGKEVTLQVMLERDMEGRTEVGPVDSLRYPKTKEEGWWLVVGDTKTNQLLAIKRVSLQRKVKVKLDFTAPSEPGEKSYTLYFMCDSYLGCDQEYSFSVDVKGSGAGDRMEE

[2] = molecular target: T2, MERISTEM-… (MDF), yeast two-hybrid fusion (Arabidopsis) (UniProt Q9LFE0); assay: two-hybrid; Clontech Matchmaker GAL4 system 3; pGBKT7 and pGADT7 constructs in AH109 and Y187, mated, both directions; diploids spotted on -WLA, -WLH with 2.5 mM 3AT and -WLAH with 2.5 mM 3AT; 5-7 days at 30°C
T2 sequence: T1 sequence

Row | binding [1] | binding [2] | Substance
1 | binds | – | BZR1, BiFC fusion (pYFN43BZR1) (from UniProt Q8S307 1-336)
2 | – | no binding | PRP8A, yeast two-hybrid fusion (from UniProt Q9SSD2 1-2359)
3 | no binding | – | PRP8A, BiFC fusion (from UniProt Q9SSD2 1-2359)
4 | binds | – | BRR2A, BiFC fusion (from UniProt Q9SYP1 1-2171)
